Results on two molecules are retold here after doi:10.1101/452904 (bioRxiv, 2018).

Amino acid sequences for entries named in this document (tags omitted).
UniProt Q15436: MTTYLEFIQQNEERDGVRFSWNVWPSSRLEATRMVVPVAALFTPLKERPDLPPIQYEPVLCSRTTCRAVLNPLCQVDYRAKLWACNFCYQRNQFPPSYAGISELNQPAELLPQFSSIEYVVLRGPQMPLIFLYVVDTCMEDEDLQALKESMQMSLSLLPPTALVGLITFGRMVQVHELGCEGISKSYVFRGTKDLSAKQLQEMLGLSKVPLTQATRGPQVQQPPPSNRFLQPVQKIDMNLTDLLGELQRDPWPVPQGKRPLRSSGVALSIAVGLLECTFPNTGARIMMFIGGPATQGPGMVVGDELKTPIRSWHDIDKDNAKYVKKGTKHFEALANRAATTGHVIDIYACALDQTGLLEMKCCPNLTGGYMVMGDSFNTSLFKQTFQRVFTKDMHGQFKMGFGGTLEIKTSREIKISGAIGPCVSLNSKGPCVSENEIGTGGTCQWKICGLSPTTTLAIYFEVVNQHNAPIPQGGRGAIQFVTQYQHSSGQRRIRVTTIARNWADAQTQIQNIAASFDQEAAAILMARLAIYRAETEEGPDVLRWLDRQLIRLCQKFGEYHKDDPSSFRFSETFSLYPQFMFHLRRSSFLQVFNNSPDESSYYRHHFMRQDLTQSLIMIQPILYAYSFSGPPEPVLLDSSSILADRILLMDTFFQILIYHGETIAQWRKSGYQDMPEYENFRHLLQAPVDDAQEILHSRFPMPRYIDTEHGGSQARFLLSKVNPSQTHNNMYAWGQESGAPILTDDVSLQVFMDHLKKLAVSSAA

The target in assay [1] is T1, FLAG-Sec24D (human) (UniProt O94855).
T1 sequence: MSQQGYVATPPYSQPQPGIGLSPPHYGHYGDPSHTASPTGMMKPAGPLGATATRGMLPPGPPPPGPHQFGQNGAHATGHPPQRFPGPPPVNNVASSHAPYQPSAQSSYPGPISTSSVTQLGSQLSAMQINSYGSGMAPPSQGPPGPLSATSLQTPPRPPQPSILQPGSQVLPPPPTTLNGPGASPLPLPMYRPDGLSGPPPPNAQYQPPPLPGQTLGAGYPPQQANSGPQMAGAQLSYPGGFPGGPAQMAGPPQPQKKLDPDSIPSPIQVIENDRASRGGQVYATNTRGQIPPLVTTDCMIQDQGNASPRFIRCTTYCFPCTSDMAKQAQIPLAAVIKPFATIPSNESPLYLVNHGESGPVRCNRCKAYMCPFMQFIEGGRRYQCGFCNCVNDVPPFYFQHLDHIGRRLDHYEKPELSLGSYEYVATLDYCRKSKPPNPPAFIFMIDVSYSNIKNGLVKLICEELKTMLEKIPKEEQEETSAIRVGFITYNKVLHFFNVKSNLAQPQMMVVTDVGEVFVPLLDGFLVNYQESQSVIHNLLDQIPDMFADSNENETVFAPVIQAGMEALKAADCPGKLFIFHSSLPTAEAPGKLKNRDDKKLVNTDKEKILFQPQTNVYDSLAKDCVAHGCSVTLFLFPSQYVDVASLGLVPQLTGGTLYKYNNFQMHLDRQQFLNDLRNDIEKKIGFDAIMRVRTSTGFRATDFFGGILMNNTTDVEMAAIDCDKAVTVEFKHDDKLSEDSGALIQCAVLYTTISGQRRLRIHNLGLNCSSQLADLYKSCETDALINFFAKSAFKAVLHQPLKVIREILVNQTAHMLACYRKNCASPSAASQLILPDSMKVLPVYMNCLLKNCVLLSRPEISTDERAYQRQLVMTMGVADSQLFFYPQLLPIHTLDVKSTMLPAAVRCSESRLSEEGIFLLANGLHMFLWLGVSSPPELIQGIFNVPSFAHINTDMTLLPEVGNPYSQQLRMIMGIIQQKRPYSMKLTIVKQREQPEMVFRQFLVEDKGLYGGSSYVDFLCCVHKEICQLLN
Nature of the assay: co-purification on FLAG affinity beads.

Assay [2] has as its target T1, FLAG-Sec24D (human). Nature of the assay: pull-down.

These are yes or no findings as the source states them, for the method shown. Some results given as binding are weak or reduced against the parent protein; the word gives no strength. Sequences can lack the tags named with a protein.

In the case of HA-Sec23A (from UniProt Q15436 1-765), the binding result in assay [1] was “binds”.

B1: GST-tagged TANGO1-PRD (1651–1907 aa)-His6 (domain or fragment)
chain: NTQNPPRRGPLSQNGSFGPSPVSGGECSPPLTVEPPVRPLSATLNRRDMPRSEFGSVDGPLPHPRWSAEASGKPSPSDPGSGTATMMNSSSRGSSPTRVLDEGKVNMAPKGPPPFPGVPLMSTPMGGPVPPPIRYGPPPQLCGPFGPRPLPPPFGPGMRPPLGLREFAPGVPPGRRDLPLHPRGFLPGHAPFRPLGSLGPREYFIPGTRLPPPTHGPQEYPPPPAVRDLLPSGSRDEPPPASQSTSQDCSQALKQSP
Turning to B1, the binding result in assay [2] is listed as “no binding”.
